Data: doi:10.1101/458190
No constants are given. Whether binding was seen depends on the method and setting. Binding seen in cells or lysates may run through a third protein. These calls come from enrichment with a bait or labelling near it, and not all partners need be listed. For some of these results: A no says only that the protein was not detected with the bait. Values belong to the binder of their own block, whether it stands above or below them.

What was measured:
Experiment in all cases: affinity purification with mass spectrometry
[1] = molecular target: Halo-SMAD4 Y353F & Y412F (human) (UniProt Q13485)
[2] = molecular target: Halo-SMAD4 phosphorylated by BRK-YF (human) (UniProt Q13485)
[3] = molecular target: T1, Halo-SMAD4 (human), Q13485; conditions: remark: other sources report otherwise
T1 chain: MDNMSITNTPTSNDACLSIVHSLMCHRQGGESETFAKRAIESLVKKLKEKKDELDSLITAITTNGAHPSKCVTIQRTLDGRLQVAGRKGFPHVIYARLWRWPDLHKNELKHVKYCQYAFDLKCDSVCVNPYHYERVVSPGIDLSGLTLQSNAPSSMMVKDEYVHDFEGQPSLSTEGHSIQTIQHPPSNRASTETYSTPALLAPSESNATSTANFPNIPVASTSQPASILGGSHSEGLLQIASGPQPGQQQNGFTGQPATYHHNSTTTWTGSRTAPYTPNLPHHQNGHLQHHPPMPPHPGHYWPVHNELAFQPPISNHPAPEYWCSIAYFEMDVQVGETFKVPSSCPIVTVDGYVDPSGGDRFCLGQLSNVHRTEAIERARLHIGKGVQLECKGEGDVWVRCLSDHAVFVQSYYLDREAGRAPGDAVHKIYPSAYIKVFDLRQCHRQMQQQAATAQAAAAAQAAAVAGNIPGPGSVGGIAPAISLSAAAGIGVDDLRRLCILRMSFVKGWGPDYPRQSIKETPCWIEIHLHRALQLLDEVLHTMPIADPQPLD

binding [1]: no binding | binding [2]: binds
B1: RNF138 (enzyme, UniProt Q8WVD3 1-245)
chain: MAEDLSAATSYTEDDFYCPVCQEVLKTPVRTTACQHVFCRKCFLTAMRESGAHCPLCRGNVTRRERACPERALDLENIMRKFSGSCRCCAKQIKFYRMRHHYKSCKKYQDEYGVSSIIPNFQISQDSVGNSNRSETSTSDNTETYQENTSSSGHPTFKCPLCQESNFTRQRLLDHCNSNHLFQIVPVTCPICVSLPWGDPSQITRNFVSHLNQRHQFDYGEFVNLQLDEETQYQTAVEESFQVNI

binding [3]: binds
B2: SMAD2, Q15796 1-467 (protein)
chain: MSSILPFTPPVVKRLLGWKKSAGGSGGAGGGEQNGQEEKWCEKAVKSLVKKLKKTGRLDELEKAITTQNCNTKCVTIPSTCSEIWGLSTPNTIDQWDTTGLYSFSEQTRSLDGRLQVSHRKGLPHVIYCRLWRWPDLHSHHELKAIENCEYAFNLKKDEVCVNPYHYQRVETPVLPPVLVPRHTEILTELPPLDDYTHSIPENTNFPAGIEPQSNYIPETPPPGYISEDGETSDQQLNQSMDTGSPAELSPTTLSPVNHSLDLQPVTYSEPAFWCSIAYYELNQRVGETFHASQPSLTVDGFTDPSNSERFCLGLLSNVNRNATVEMTRRHIGRGVRLYYIGGEVFAECLSDSAIFVQSPNCNQRYGWHPATVCKIPPGCNLKIFNNQEFAALLAQSVNQGFEAVYQLTRMCTIRMSFVKGWGAEYRRQTVTSTPCWIELHLNGPLQWLDKVLTQMGSPSVRCSSMS

binding [3]: binds
B3: SMAD3, P84022 1-425 (protein)
chain: MSSILPFTPPIVKRLLGWKKGEQNGQEEKWCEKAVKSLVKKLKKTGQLDELEKAITTQNVNTKCITIPRSLDGRLQVSHRKGLPHVIYCRLWRWPDLHSHHELRAMELCEFAFNMKKDEVCVNPYHYQRVETPVLPPVLVPRHTEIPAEFPPLDDYSHSIPENTNFPAGIEPQSNIPETPPPGYLSEDGETSDHQMNHSMDAGSPNLSPNPMSPAHNNLDLQPVTYCEPAFWCSISYYELNQRVGETFHASQPSMTVDGFTDPSNSERFCLGLLSNVNRNAAVELTRRHIGRGVRLYYIGGEVFAECLSDSAIFVQSPNCNQRYGWHPATVCKIPPGCNLKIFNNQEFAALLAQSVNQGFEAVYQLTRMCTIRMSFVKGWGAEYRRQTVTSTPCWIELHLNGPLQWLDKVLTQMGSPSIRCSSVS
